No constants are given. Whether binding was seen depends on the method and setting. Some results given as binding are weak or reduced against the parent protein; the word gives no strength.
B1: BCMA-1 scFv (scFv)
scFv: QVQLVQSGAEVRKTGASVKVSCKASGYIFDNFGINWVRQAPGQGLEWMGWINPKNNNTNYAQKFQGRVTITADESTNTAYMEVSSLRSEDTAVYYCARGPYYYQSYMDVWGQGTMVTVSSASGGGGSGGRASGGGGSDIVMTQTPLSLPVTPGEPASISCRSSQSLLHSNGYNYLNWYLQKPGQSPQLLIYLGSKRASGVPDRFSGSGSGTDFTLHITRVGAEDVGVYYCMQALQTPYTFGQGTKLEIK
B2: BCMA-2 scFv (scFv)
scFv: QVQLQESGGGLVQPGGSLRLSCAASGFTFSSDAMTWVRQAPGKGLEWVSVISGSGGTTYYADSVKGRFTISRDNSKNTLYLQMNSLRAEDTAVYYCAKLDSSGYYYARGPRYWGQGTLVTVSSASGGGGSGGRASGGGGSDIQLTQSPSSLSASVGDRVTITCRASQSISSYLNWYQQKPGKAPKLLIYGASTLASGVPARFSGSGSGTHFTLTINSLQSEDSATYYCQQSYKRASFGQGTKVEIK
B3: BCMA-3 scFv (scFv)
scFv: QVQLVQSGAEVKKPGASVKVSCKASGYTFSNYGITWVRQAPGQGLEWMGWISAYNGNTNYAQKFQGRVTMTRNTSISTAYMELSSLRSEDTAVYYCARGPYYYYMDVWGKGTMVTVSSASGGGGSGGRASGGGGSEIVMTQSPLSLPVTPGEPASISCRSSQSLLYSNGYNYVDWYLQKPGQSPQLLIYLGSNRASGVPDRFSGSGSGTDFKLQISRVEAEDVGIYYCMQGRQFPYSFGQGTKVEIK
B4: BCMA-4 scFv (scFv)
scFv: QVQLVESGGGLVQPGRSLRLSCAASGFTFSNYAMSWVRQAPGKGLGWVSGISRSGENTYYADSVKGRFTISRDNSKNTLYLQMNSLRDEDTAVYYCARSPAHYYGGMDVWGQGTTVTVSSASGGGGSGGRASGGGGSDIVLTQSPGTLSLSPGERATLSCRASQSISSSFLAWYQQKPGQAPRLLIYGASRRATGIPDRFSGSGSGTDFTLTISRLEPEDSAVYYCQQYHSSPSWTFGQGTKLEIK
B5: BCMA-9 scFv (scFv)
scFv: QVQLVESGGGLVKPGGSLRLSCAASGFTFSDYYMSWIRQAPGKGLEWVSYISSSGSTIYYADSVKGRFTISRDNAKNSLYLQMNSLRAEDTAVYYCARESGDGMDVWGQGTTVTVSSASGGGGSGGRASGGGGSDIQMTQSPSSLSASVGDRVTITCRASQSISSYLNWYQQKPGKAPKLLIYAASSLQSGVPSRFSGSGSGTDFTLTISSLQPEDFATYYCQQSYTLAFGQGTKVDIK
B6: BCMA-11 scFv (scFv)
scFv: QVQLVQSGGGLVKPGGSLRLSCAASGFTFSDYYMSWIRQAPGKGLEWVSYISSSGNTIYYADSVKGRFTISRDNAKNSLYLQMNSLRAEDTAVYYCARSTMVREDYWGQGTLVTVSSASGGGGSGGRASGGGGSDIVLTQSPLSLPVTLGQPASISCKSSESLVHNSGKTYLNWFHQRPGQSPRRLIYEVSNRDSGVPDRFTGSGSGTDFTLKISRVEAEDVGVYYCMQGTHWPGTFGQGTKLEIK
B7: BCMA-4NP tool CAR (protein, not shown: a dimerising Fc or GST)
chain: QVQLVQSGAEVKKPGSSVKVSCKASGGTFSNYWMHWVRQAPGQGLEWMGATYRGHSDTYYNQKFKGRVTITADKSTSTAYMELSSLRSEDTAVYYCARGAIYNGYDVLDNWGQGTLVTVSSGGGGSGGGGSGGGGSGGGGSDIQMTQSPSSLSASVGDRVTITCSASQDISNYLNWYQQKPGKAPKLLIYYTSNLHSGVPSRFSGSGSGTDFTLTISSLQPEDFATYYCQQYRKLPWTFGQGTKLEIKR

Chains of the proteins cited; added tags and fusions are not shown. Residues count along the entry.
UniProt Q02223, residues 1-54: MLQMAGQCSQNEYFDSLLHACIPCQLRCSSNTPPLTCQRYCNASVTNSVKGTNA
BCMA-Fc antigen (Q02223, residues 5-51): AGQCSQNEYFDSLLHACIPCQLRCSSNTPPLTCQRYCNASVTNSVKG

Experiments:
[1] = target: BCMA (recombinant, form not given) (UniProt Q02223); experiment: phage panning on Bio-BCMA, ELISA for BCMA reactivity, FACS of purified scFv (FACS target not named)
BCMA-Fc antigen = BCMA-Fc antigen (UniProt Q02223); experiment: flow cytometry of CAR-transduced SupT1 cells stained with BCMA-Fc antigen (titer determination)

Binder	binding [1]	binding (BCMA-Fc antigen)
B1	binds	
B2	binds	
B3	binds	
B4	binds	
B5	binds	
B6	binds	
B7		binds

Reference: patent US20160046724A1
